Source: the supplement of paper PMC12872613
Some of the results follow. Rule as the data show it: active = 0.7 or more and inactive = the rest. Single values are uncertain, as repeats are few or missing.

tested on: MiaPaCa-2 CLSA-25; assay: cell death relative to DMSO vehicle (fraction); higher = more cytotoxic; conditions: 5 µM; treatment time 48 h; medium cystine 25 µM

Structure (SMILES) | cell death
Cc1noc(-c2ccc(-c3ccc(C4(C(=O)O)CC4)cc3)cc2)c1NC(=O)O[C@H](C)c1ccccc1 | inactive: 0.628
Cc1ncc(CO)c(CO)c1O [Metadoxine] | active: 0.871
COc1cn(-c2ccc(-n3cccn3)cc2F)nc(-c2ccnn2-c2ccccc2)c1=O | inactive: 0.0465
